From PMC5225067
Results are given in words; binding and its absence hold for the method and conditions named. Some binding calls cover weakened binding; strength is not graded here. Sequences can lack the tags named with a protein.

What was measured:
Assay in all cases: two-hybrid; Gal4 system in mated PJ69-4 cells; quantitative GAL4 promoter-directed β-galactosidase expression; measured at 25 °C and 39 °C (heat stress); control: pBDC fusion with empty pADC
[1] = target: T1, She4-BD S18A (S. cerevisiae) (UniProt P51534)
T1 sequence: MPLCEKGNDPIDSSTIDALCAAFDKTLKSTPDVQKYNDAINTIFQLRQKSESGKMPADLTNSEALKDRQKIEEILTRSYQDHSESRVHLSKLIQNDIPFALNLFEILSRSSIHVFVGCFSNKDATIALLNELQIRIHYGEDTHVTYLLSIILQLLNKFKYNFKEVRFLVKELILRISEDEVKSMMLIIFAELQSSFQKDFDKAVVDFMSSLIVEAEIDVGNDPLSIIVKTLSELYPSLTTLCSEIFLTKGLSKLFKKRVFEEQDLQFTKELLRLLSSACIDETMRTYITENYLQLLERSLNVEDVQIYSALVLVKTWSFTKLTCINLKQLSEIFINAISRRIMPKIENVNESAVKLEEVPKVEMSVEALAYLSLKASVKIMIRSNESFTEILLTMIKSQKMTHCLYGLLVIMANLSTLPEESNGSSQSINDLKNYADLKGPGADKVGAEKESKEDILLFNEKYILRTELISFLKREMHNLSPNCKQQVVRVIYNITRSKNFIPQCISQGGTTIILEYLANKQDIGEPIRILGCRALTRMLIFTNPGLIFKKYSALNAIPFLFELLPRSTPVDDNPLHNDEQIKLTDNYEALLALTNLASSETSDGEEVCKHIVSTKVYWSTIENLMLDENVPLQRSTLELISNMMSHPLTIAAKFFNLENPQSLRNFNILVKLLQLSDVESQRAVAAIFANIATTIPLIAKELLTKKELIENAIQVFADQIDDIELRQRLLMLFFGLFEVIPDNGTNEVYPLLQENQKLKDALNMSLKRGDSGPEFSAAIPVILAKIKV

[2] = target: T2, She4-BD S18E (S. cerevisiae) (UniProt P51534)
T2 sequence: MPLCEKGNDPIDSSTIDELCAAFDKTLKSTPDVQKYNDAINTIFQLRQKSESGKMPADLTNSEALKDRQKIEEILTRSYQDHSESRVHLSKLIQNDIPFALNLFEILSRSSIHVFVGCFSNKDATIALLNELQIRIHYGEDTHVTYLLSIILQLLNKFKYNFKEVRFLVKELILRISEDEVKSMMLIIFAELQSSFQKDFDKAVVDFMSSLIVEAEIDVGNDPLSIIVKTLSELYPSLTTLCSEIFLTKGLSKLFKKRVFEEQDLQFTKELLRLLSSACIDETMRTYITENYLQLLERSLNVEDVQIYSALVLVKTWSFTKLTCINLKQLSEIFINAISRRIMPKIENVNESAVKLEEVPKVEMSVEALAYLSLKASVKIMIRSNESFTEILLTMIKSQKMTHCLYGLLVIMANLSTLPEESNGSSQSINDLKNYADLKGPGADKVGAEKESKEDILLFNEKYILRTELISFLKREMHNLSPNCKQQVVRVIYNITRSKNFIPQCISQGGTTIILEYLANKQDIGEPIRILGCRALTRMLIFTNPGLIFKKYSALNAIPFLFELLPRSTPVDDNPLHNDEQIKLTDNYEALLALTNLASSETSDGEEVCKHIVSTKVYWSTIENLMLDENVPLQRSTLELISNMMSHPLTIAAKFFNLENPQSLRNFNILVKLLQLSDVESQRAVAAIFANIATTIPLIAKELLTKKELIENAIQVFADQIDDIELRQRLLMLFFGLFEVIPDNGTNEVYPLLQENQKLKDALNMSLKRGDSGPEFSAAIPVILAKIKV

[3] = target: T3, human BD-UNC45-SM (S251A) (human) (UniProt Q8IWX7)
T3 sequence: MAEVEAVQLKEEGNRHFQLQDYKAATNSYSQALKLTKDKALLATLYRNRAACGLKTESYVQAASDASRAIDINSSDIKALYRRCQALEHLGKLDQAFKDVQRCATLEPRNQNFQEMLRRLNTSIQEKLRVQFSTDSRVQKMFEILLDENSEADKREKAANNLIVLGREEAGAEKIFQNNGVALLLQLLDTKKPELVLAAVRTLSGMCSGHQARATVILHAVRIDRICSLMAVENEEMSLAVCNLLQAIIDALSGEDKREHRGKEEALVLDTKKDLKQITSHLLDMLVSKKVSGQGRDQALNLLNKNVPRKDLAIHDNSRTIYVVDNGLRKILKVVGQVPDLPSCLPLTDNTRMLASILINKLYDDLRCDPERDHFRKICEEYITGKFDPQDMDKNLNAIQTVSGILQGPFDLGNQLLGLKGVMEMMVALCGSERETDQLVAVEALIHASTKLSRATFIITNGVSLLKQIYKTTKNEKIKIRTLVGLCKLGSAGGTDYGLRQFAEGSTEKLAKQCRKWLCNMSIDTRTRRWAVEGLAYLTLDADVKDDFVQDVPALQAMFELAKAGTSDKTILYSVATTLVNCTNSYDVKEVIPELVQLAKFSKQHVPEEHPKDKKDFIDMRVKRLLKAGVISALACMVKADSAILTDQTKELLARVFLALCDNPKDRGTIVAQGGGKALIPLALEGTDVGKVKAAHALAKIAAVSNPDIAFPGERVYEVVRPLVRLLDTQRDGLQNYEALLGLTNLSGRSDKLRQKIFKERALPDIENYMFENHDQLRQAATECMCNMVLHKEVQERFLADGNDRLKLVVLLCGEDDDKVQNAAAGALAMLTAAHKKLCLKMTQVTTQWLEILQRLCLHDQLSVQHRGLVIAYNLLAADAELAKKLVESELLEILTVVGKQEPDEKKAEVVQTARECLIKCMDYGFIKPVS

Measured: binding

B1: AD-Myo5 (protein, UniProt Q04439 1-1219)
chain: MAILKRGARKKVHQEPAKRSANIKKATFDSSKKKEVGVSDLTLLSKISDEAINENLKKRFLNATIYTYIGHVLISVNPFRDLGIYTDAVMNEYKGKNRLEVPPHVFAIAESMYYNMKSYNENQCVIISGESGAGKTEAAKRIMQYIAAASSTHTESIGKIKDMVLATNPLLESFGCAKTLRNNNSSRHGKYLEIKFNNQFEPCAGNITNYLLEKQRVVSQIKNERNFHIFYQFTKGASDAYRQTFGVQKPEQYVYTAAAGCISAETIDDLQDYQETLKAMRVIGLGQEEQDQIFRMLAAILWIGNVSFIENEEGNAQVRDTSVTDFVAYLLQIDSQLLIKSLVERIMETNHGMKRGSVYHVPLNIVQADAVRDALAKAIYNNLFDWIVSRVNKSLQAFPGAEKSIGILDIYGFEIFEHNSFEQICINYVNEKLQQIFIQLTLKSEQETYEREKIQWTPIKYFDNKVVCDLIEARRPPGIFAAMNDSVATAHADSNAADQAFAQRLNLFTTNPHFDLRSNKFVIKHYAGDVTYDIDGITDKNKDQLQKDLVELIGTTTNTFLATIFPDTVDRESKRRPPTAGDKIIKSANDLVETLSKAQPSYIRTIKPNETKSPNDYDDRQVLHQIKYLGLQENVRIRRAGFAYRQVFEKFVERFYLLSPHCSYAGDYTWQGDTLDAVKYILQDSSIPQQEYQLGVTSVFIKTPETLFALEHMRDRYWHNMAARIQRAWRRFLQRRIDAATKIQRTIRERKEGNKYEKLRDYGTKVLGGRKERRSMSLLGYRAFMGDYLSCNESKSKGAYIKRQVSIKEKVIFSIHGEALHTKFGRSAQRLKKTFLLTPTTLYIVGQTLVQNAMTYTQDYKIDVRNIQAVSLTNLQDDWVAIKLASSGQPDPLINTYFKTELITHLKRLNDKIQIKIGSAIEYQKKPGKLHSVKCQINESAPKYGDIYKSSTISVRRGNPPNSQVHKKPRKKSSISSGYHASSSQATRRPVSIAAAQHVPTAPASRHSKKPAPPPPGMQNKAATRRSVPNPASTLTASQSNARPSPPTAATRATPAATPAAAAMGSGRQANIPPPPPPPPPSSKPKEPMFEAAYDFPGSGSPSELPLKKGDVIYITREEPSGWSLGKLLDGSKEGWVPTAYMKPHSGNNNIPTPPQNRDVPKPVLNSVQHDNTSANVIPAAAQASLGDGLANALAARANKMRLESDDEEANEDEEEDDW
binds: all assays above
